# Laboratory results: PubChem BioAssay AID504834 (National Center for Advancing Translational Sciences (NCATS), 2011)
# In all, about 320,000 compounds went through this assay and about 22,000 (6.9%) were called active. Inconclusive means that the source gave no clear call. Such entries were picked first, then a sample of the others. Calls come from the whole dose curve; as a rule, active = well fitted inhibition curve with a large enough effect; inconclusive = small, poorly fitted or top-dose-only effect, or another doubt; inactive = no such curve, though single readings can be large or run the other way. A potency beside an inconclusive call is a rough fit, not a confirmed value.
# Assay: Primary qHTS for delayed death inhibitors of the malarial parasite plastid, 96 hour incubation
# Conditions: P. falciparum luciferase reporter growth; series mostly up to 28.7 µM
# In short: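 Luminescence readout: decreased luciferase signal marks inhibited growth of reporter-expressing P. falciparum in infected red cells (2% hematocrit, 0.05% parasitemia final), exposed to compound two generations (96 h, 37 C, 5% CO2).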
# Potency is the fitted concentration of half-maximal effect.
row,SMILES,Potency
1,COc1ccccc1/C=C/C(=O)NCC(=O)N/N=C/c1cccnc1,inactive
2,COc1ccc(OCC(=O)N/N=C/c2ccc(OC)c(OC)c2C(=O)O)cc1,"inconclusive: 1.85 µM [inhibitor, full curve]"
3,CCOC(=O)C1C(=O)CC(C)(O)C(C(=O)OCC)C1c1ccc(NC(C)=O)cc1 (stereo not given),"inconclusive: 18.5 µM [inhibitor, single point]"
4,O=C(N/C(=C\c1ccccc1)C(=O)N1CCOCC1)c1ccco1,"inconclusive: 6.57 µM [inhibitor, partial curve, poor fit]"
5,Cc1cc(=O)[nH]c(SCCCOc2ccc(F)cc2)n1,"inconclusive: 13.1 µM [inhibitor, single point]"
6,COc1ccccc1NC(=O)Nc1cccc(C(=O)O)c1,"inconclusive: 2.62 µM [inhibitor, full curve, poor fit]"
7,CC1CCN(CCCNS(=O)(=O)c2ccc3c(c2)CCN3C(=O)C2CC2)CC1,"inconclusive: 11.7 µM [inhibitor, single point]"
8,C#CCOc1ccccc1CNC1CCN(Cc2ccccc2)CC1,active: 13.1 µM
9,COc1ccc(C2CC(c3ccccc3)=NN2C(=S)Nc2ccccc2)cc1 (stereo not given),"inconclusive: 13.1 µM [inhibitor, partial curve, poor fit]"
10,CCn1c2ccccc2c2cc(NC(=O)CNCc3ccccc3OC)ccc21,inactive
11,CC(C)Cn1c(CN(Cc2ccccc2)Cc2ccccc2)nc2c1c(=O)n(C)c(=O)n2C,inactive
12,COc1ccc(OC)c(CNn2c(-c3cccc(C)c3)nc3ccccc3c2=O)c1,active: 8.28 µM
13,COc1ccccc1/C=C/C(=O)NCc1ccccn1,inactive
14,Cn1c2ccc(F)cc2c2nnc(SCCN3CCCCC3)nc21,"inconclusive: 18.5 µM [inhibitor, single point]"
15,CCOC(=O)c1c(S(=O)(=O)N2CCCC(C)C2)c(C)n(C)c1C (stereo not given),"inconclusive: 14.7 µM [inhibitor, single point]"
16,CCOc1ccc(NC(=O)CSc2nc3ccccc3nc2N2CC(C)OC(C)C2)cc1 (stereo not given),active: 9.28 µM
17,Cc1ccc(NC(=O)C(C)OC(=O)Cn2cnc3ccccc3c2=O)cc1 (stereo not given),inactive
18,Nn1c(SCC(=O)NC2CCCC2)nnc1-c1ccccc1F,"inconclusive: 0.147 µM [inhibitor, full curve, poor fit]"
19,CCOc1ccccc1N(CC(=O)NC1CCCCC1)C(=O)c1nsc(Cl)c1Cl,"inconclusive: 18.5 µM [inhibitor, single point]"
20,O=C(CCNc1n[nH]c(=O)[nH]c1=O)N/N=C\c1cccc(OCc2ccccc2)c1,"inconclusive: 0.0033 µM [inhibitor, full curve, poor fit]"

# In a second layout: results already given.
row	SMILES	Potency
5	Cc1cc(=O)[nH]c(SCCCOc2ccc(F)cc2)n1	inconclusive: 13.1 µM [inhibitor, single point]
20	O=C(CCNc1n[nH]c(=O)[nH]c1=O)N/N=C\c1cccc(OCc2ccccc2)c1	inconclusive: 0.0033 µM [inhibitor, full curve, poor fit]
